Laboratory results from PMC10244369.
Results are given in words; binding and its absence hold for the method and conditions named. In cells and extracts the contact can be indirect.

By UniProt entry, the sequences of proteins in these tests, tags left out. Residues count along the entry.
UniProt Q15116, residues 25-288: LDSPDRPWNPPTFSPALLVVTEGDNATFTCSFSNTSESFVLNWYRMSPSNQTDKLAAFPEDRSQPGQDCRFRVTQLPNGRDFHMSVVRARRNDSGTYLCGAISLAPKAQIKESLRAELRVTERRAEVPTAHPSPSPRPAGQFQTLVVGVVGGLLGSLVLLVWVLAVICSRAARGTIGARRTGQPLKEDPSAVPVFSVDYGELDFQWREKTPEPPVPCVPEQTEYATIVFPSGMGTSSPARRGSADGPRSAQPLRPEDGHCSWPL
UniProt P29351: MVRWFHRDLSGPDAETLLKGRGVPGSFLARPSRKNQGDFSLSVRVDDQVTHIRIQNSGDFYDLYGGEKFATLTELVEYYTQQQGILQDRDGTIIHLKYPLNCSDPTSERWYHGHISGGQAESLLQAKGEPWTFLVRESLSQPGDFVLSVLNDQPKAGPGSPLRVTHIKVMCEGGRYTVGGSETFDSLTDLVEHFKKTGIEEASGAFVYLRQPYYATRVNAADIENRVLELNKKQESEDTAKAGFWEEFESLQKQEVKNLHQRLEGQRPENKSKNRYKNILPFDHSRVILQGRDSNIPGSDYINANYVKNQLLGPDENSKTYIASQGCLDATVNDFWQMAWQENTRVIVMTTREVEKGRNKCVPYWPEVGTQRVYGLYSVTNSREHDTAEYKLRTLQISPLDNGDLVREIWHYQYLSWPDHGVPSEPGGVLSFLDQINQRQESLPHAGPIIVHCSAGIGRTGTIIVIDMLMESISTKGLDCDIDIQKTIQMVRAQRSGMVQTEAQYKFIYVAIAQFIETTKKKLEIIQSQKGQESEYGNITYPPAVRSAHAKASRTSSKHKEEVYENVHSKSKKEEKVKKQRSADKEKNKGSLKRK

Molecular target: enhanced green fluorescent protein-tagged hPD-1 (human) (UniProt Q15116)
Experiment: co-IP; 2D12 cells expressing hPD-1-EGFP conjugated with MCC88-103-prepulsed DC-1 cells not expressing or expressing hPD-L1; lysis buffer 50 mM Tris-HCl, 50 mM NaCl, 5 mM EDTA, 1% NP-40; immunoprecipitated by anti-GFP, blotted for SHP1, SHP2

binding: no binding
Substance: SHP1 (from UniProt P29351 1-595) (enzyme)
